Measured values from US20140121213A1, “VOLTAGE-GATED SODIUM CHANNEL BLOCKERS” (priority 2011, published 2014).
Some entries share one result that the patent states for a list of compounds.

By UniProt entry, the sequences of proteins in these tests, tags left out.
UniProt Q9NY46, whole entry: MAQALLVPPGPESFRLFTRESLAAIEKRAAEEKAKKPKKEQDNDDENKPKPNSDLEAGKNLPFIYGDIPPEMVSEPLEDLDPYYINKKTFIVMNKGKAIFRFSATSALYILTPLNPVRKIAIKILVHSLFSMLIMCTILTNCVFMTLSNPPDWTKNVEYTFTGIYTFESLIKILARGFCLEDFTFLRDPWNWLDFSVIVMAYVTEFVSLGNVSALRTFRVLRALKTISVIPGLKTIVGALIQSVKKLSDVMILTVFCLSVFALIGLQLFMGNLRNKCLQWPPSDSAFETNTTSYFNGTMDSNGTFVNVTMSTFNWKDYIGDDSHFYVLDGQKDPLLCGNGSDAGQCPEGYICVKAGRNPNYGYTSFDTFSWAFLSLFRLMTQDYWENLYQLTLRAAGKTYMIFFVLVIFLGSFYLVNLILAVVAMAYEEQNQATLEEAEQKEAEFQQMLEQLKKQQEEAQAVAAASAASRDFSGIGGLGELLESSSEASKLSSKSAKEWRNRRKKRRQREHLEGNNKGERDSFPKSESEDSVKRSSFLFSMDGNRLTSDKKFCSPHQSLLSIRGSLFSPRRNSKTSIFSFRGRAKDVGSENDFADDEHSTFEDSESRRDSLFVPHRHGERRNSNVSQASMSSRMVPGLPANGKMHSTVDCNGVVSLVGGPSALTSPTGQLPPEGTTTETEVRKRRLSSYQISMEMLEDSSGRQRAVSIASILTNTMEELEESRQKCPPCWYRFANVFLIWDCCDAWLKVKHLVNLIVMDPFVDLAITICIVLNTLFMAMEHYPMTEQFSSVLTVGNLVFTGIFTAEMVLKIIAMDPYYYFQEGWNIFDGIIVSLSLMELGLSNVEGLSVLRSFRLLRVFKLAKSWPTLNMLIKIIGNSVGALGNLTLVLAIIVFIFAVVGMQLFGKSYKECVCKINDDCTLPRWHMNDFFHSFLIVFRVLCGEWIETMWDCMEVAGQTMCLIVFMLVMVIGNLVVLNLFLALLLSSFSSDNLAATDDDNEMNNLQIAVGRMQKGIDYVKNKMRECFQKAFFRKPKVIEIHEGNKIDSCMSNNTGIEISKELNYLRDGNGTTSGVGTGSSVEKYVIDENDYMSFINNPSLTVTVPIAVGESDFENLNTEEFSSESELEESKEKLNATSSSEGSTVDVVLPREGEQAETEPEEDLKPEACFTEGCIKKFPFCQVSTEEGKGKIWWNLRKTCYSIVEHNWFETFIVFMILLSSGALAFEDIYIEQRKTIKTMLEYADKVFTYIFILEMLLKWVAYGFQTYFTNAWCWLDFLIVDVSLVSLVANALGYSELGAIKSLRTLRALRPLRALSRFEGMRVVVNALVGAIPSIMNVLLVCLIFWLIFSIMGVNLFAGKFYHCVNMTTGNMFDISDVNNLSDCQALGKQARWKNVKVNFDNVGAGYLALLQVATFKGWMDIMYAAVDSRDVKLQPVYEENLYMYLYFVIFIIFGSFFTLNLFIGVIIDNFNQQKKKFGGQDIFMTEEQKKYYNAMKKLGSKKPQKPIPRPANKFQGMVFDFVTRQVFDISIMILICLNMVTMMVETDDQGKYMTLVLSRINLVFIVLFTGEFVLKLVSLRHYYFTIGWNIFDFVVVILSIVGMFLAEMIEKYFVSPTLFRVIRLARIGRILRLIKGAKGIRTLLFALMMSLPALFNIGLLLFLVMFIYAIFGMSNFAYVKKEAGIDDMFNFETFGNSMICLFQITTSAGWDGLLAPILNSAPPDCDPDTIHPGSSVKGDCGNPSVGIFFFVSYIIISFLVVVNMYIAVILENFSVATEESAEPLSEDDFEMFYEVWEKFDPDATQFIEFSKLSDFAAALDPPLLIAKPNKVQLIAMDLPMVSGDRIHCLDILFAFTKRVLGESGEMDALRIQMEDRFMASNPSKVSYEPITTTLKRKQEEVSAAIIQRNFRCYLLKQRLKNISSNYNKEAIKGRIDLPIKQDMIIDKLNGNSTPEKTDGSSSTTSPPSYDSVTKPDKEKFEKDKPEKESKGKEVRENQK
UniProt Q15858, whole entry: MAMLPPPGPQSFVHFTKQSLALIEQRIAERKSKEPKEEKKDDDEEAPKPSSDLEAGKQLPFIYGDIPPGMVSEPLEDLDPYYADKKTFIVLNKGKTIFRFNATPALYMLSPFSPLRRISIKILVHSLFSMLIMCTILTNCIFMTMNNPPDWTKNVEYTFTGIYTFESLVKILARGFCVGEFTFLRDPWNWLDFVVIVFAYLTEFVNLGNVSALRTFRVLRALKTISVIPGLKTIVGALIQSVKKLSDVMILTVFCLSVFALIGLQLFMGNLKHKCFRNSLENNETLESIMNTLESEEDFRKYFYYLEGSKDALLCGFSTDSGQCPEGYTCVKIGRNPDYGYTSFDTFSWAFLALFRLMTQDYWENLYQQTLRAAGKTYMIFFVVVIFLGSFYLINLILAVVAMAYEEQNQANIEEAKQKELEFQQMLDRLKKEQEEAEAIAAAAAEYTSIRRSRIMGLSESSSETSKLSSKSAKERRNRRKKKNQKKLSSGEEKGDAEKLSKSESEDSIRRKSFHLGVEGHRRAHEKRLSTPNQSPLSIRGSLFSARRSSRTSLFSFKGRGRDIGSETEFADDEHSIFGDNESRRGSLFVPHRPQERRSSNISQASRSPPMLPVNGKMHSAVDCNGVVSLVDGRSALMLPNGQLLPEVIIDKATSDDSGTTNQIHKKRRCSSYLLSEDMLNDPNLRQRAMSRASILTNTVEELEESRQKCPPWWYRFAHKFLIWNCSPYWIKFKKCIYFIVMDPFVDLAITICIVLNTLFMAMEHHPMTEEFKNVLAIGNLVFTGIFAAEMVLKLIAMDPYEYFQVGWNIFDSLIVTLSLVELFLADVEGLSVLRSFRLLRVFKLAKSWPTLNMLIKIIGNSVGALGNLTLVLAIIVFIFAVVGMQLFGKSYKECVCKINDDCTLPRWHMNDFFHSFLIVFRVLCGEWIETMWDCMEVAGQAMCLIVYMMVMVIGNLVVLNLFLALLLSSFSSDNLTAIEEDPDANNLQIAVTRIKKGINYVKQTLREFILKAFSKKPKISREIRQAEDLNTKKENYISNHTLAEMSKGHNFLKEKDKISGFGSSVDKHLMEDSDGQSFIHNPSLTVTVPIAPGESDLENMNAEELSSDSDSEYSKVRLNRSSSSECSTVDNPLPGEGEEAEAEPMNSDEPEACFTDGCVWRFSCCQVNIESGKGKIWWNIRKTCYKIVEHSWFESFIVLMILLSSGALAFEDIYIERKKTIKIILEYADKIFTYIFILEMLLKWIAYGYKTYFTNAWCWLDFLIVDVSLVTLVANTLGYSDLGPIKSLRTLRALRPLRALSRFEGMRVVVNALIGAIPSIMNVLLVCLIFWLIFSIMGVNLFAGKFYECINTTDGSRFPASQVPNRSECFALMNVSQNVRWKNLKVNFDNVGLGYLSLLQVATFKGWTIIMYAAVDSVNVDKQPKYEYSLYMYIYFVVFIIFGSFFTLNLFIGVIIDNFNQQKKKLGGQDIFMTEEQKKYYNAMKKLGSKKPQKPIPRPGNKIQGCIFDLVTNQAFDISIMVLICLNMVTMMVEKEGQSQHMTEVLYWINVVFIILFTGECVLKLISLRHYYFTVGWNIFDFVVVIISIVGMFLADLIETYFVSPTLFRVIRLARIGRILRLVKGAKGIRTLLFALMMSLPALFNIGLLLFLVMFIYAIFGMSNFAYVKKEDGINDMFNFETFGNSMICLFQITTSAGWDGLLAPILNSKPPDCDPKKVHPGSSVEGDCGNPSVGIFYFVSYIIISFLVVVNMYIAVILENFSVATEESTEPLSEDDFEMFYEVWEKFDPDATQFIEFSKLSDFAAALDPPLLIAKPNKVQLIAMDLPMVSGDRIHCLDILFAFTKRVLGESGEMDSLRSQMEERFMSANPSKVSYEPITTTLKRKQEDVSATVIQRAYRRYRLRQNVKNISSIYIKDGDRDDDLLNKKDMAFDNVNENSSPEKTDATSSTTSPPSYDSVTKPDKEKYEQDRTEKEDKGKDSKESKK

Key:
[1] = molecular target: T1, hNaV1.3 channels (Homo sapiens, UniProt Q9NY46); experiment: Use-dependent inhibition of NaV1.3 currents, IonWorks Quattro planar array electrophysiology; assay type: cell-based; details: use-dependent; concentration producing 15% inhibition, 10th versus 1st depolarizing pulse, 10 Hz
T1 construct: expressed in transfected cells

[2] = molecular target: NaV 1.7 (Homo sapiens, UniProt Q15858); experiment: Use-dependent inhibition of NaV1.7 currents, IonWorks Quattro planar array electrophysiology; assay type: cell-based; details: use-dependent; concentration producing 15% inhibition, 10th versus 1st depolarizing pulse, 10 Hz

Structure (SMILES)	pUD15 against NaV1.3 [1]	pUD15 against NaV1.7 [2]
CCN(Cc1ccccc1-c1ccccc1C)[C@@H]1CCN(c2nccc(C)c2C(=O)OC(C)C)C1 [Example 292, 1-methylethyl 2-((3R)-3-{ethyl[(2′-methyl-2-biphenylyl)methyl]amino}-1-pyrrolidinyl)-4-methyl-3-pyridinecarboxylate]	5-5.99	5-5.99
CCN(Cc1cc(C)c(C)o1)[C@@H]1CCN(c2nccc(C)c2C(=O)OC(C)C)C1 [Example 302, 1-methylethyl 2-{(3R)-3-[[(4,5-dimethyl-2-furanyl)methyl](ethyl)amino]-1-pyrrolidinyl}-4-methyl-3-pyridinecarboxylate]	5-5.99	5-5.99
CC(C)OC(=O)c1cccnc1N1CCN(Cc2ccccc2-c2ccccc2)CC1 [Example 340, 1-methylethyl 2-[4-(2-biphenylylmethyl)-1-piperazinyl]-3-pyridinecarboxylate]	5-5.99	5-5.99
Cc1ccc(Oc2ccc(CN3CCN(c4ncccc4C(=O)OC(C)C)CC3)cc2)cc1 [Example 346, 1-methylethyl 2-[4-({4-[(4-methylphenyl)oxy]phenyl}methyl)-1-piperazinyl]-3-pyridinecarboxylate]	5-5.99	4-4.99
CC(C)OC(=O)c1cccnc1N1CCN(Cc2ccccc2Oc2ccc(C#N)cc2)CC1 [Example 350, 1-methylethyl 2-[4-({2-[(4-cyanophenyl)oxy]phenyl}methyl)-1-piperazinyl]-3-pyridinecarboxylate]	5-5.99	5-5.99
CC(C)OC(=O)c1cccnc1N1CCN(Cc2cccc3c2oc2ccccc23)CC1 [Example 354, 1-methylethyl 2-[4-(dibenzo[b,d]furan-4-ylmethyl)-1-piperazinyl]-3-pyridinecarboxylate]	5-5.99	4-4.99
COc1ccc(Oc2ccc(CN3CCN(c4ncccc4C(=O)OC(C)C)CC3)cc2)cc1 [Example 359, 1-methylethyl 2-{4-[(4-{[4-(methyloxy)phenyl]oxy}phenyl)methyl]-1-piperazinyl}-3-pyridinecarboxylate]	5-5.99	4-4.99
CC(C)OC(=O)c1cccnc1N1CCN(Cc2ccccc2Oc2ccc(F)cc2)CC1 [Example 360, 1-methylethyl 2-[4-({2-[(4-fluorophenyl)oxy]phenyl}methyl)-1-piperazinyl]-3-pyridinecarboxylate]	5-5.99	5-5.99
COC(=O)c1ccc(-c2cccc(CN3CCN(c4ncccc4C(=O)OC(C)C)CC3)c2)cc1 [Example 362, 1-methylethyl 2-[4-({4′-[(methyloxy)carbonyl]-3-biphenylyl}methyl)-1-piperazinyl]-3-pyridinecarboxylate]	5-5.99	4-4.99
CCCCCCOc1ccc(CN2CC[C@H](N(C)c3ncccc3C(=O)OC(C)C)C2)cc1 [Example 378, 1-methylethyl 2-[((3S)-1-{[4-(hexyloxy)phenyl]methyl}-3-pyrrolidinyl)(methyl)amino]-3-pyridinecarboxylate]	4-4.99	5-5.99
CC(C)OC(=O)c1cccnc1N(C)[C@H]1CCN(Cc2cccc(OCc3ccccc3Cl)c2)C1 [Example 388, 1-methylethyl 2-[{(3S)-1-[(3-{[(2-chlorophenyl)methyl]oxy}phenyl)methyl]-3-pyrrolidinyl}(methyl)amino]-3-pyridinecarboxylate]	5-5.99	4-4.99
CC(C)OC(=O)c1cccnc1N1CCN(Cc2cccc(OCc3cc(F)c(F)cc3F)c2)CC1 [Example 398, 1-methylethyl 2-{4-[(3-{[(2,4,5-trifluorophenyl)methyl]oxy}phenyl)methyl]-1-piperazinyl}-3-pyridinecarboxylate]	5-5.99	4-4.99
Cc1cc(C)cc(COc2cccc(CN3CCN(c4ncccc4C(=O)OC(C)C)CC3)c2)c1 [Example 402, 1-methylethyl 2-{4-[(3-{[(3,5-dimethylphenyl)methyl]oxy}phenyl)methyl]-1-piperazinyl}-3-pyridinecarboxylate]	5-5.99	4-4.99
CC(C)OC(=O)c1cccnc1N1CCN(Cc2cccc(OCc3cccc(F)c3F)c2)CC1 [Example 405, 1-methylethyl 2-{4-[(3-{[(2,3-difluorophenyl)methyl]oxy}phenyl)methyl]-1-piperazinyl}-3-pyridinecarboxylate]	5-5.99	5-5.99
CC(C)OC(=O)c1cccnc1N1CCN(Cc2ccc(OCc3cc(F)c(F)cc3F)cc2)CC1 [Example 427]	4-4.99	4-4.99
CC(C)OC(=O)c1cccnc1N1CCN(Cc2ccc(OCc3c(F)cccc3F)cc2)CC1 [Example 430]	5-5.99	5-5.99
CCc1ccc(COc2ccc(CN3CCN(c4ncccc4C(=O)OC(C)C)CC3)cc2)cc1 [Example 439]	4-4.99	5-5.99
CC(C)OC(=O)c1cccnc1N1CCN(Cc2ccc(OCc3cc(Cl)ccc3F)cc2)CC1 [Example 441]	4-4.99	5-5.99

Results, then the compound that gave them:

pUD15 against NaV1.3 [1]	pUD15 against NaV1.7 [2]	Structure (SMILES)
5-5.99	4-4.99	COc1cc(CN2CCN(c3ncccc3C(=O)OC(C)C)CC2)cc(OC)c1OCc1ccccc1 [Example 308, 1-methylethyl 2-[4-({3,5-bis(methyloxy)-4-[(phenylmethyl)oxy]phenyl}methyl)-1-piperazinyl]-3-pyridinecarboxylate]
5-5.99	5-5.99	COc1ccc(CN2CCN(c3ncccc3C(=O)OC(C)C)CC2)cc1OCc1ccccc1 [Example 309, 1-methylethyl 2-[4-({4-(methyloxy)-3-[(phenylmethyl)oxy]phenyl}methyl)-1-piperazinyl]-3-pyridinecarboxylate]
4-4.99	4-4.99	CC(C)OC(=O)c1cccnc1N1CCN(Cc2ccc(OCc3ccccc3)c(Cl)c2)CC1 [Example 314, 1-methylethyl 2-[4-({3-chloro-4-[(phenylmethyl)oxy]phenyl}methyl)-1-piperazinyl]-3-pyridinecarboxylate]
5-5.99	4-4.99	CC(C)OC(=O)c1cccnc1N1CCN(Cc2cc(OCc3ccccc3)cc(OCc3ccccc3)c2)CC1 [Example 317, 1-methylethyl 2-[4-({3,5-bis[(phenylmethyl)oxy]phenyl}methyl)-1-piperazinyl]-3-pyridinecarboxylate]
4-4.99	4-4.99	CC(C)OC(=O)c1cccnc1N1CCN(Cc2ccc(OCc3ccc(F)cc3)cc2)CC1 [Example 318, 1-methylethyl 2-{4-[(4-{[(4-fluorophenyl)methyl]oxy}phenyl)methyl]-1-piperazinyl}-3-pyridinecarboxylate]
5-5.99	5-5.99	COc1cc(CN2CCN(c3ncccc3C(=O)OC(C)C)CC2)ccc1OCc1ccc(F)cc1 [Example 320, 1-methylethyl 2-(4-{[4-{[(4-fluorophenyl)methyl]oxy}-3-(methyloxy)phenyl]methyl}-1-piperazinyl)-3-pyridinecarboxylate]
4-4.99	4-4.99	COc1cc(CN2CCN(c3ncccc3C(=O)OC(C)C)CC2)ccc1OCc1ccc(Cl)cc1 [Example 329, 1-methylethyl 2-(4-{[4-{[(4-chlorophenyl)methyl]oxy}-3-(methyloxy)phenyl]methyl}-1-piperazinyl)-3-pyridinecarboxylate]
5-5.99	4-4.99	CC(C)OC(=O)c1cccnc1N1CCN(Cc2ccc(F)c(Oc3ccccc3)c2)CC1 [Example 342, 1-methylethyl 2-(4-{[4-fluoro-3-(phenyloxy)phenyl]methyl}-1-piperazinyl)-3-pyridinecarboxylate]
5-5.99	5-5.99	COc1cc(COc2cccc(CN3CCN(c4ncccc4C(=O)OC(C)C)CC3)c2)cc(OC)c1 [Example 397, 1-methylethyl 2-(4-{[3-({[3,5-bis(methyloxy)phenyl]methyl}oxy)phenyl]methyl}-1-piperazinyl)-3-pyridinecarboxylate]
4-4.99	4-4.99	CCCCOc1ccc(COc2cccc(CN3CCN(c4ncccc4C(=O)OC(C)C)CC3)c2)cc1 [Example 406, 1-methylethyl 2-(4-{[3-({[4-(butyloxy)phenyl]methyl}oxy)phenyl]methyl}-1-piperazinyl)-3-pyridinecarboxylate]
4-4.99	4-4.99	CCc1ccc(COc2cccc(CN3CCN(c4ncccc4C(=O)OC(C)C)CC3)c2)cc1 [Example 408, 1-methylethyl 2-{4-[(3-{[(4-ethylphenyl)methyl]oxy}phenyl)methyl]-1-piperazinyl}-3-pyridinecarboxylate]
5-5.99	5-5.99	COc1cc(COc2ccc(CN3CCN(c4ncccc4C(=O)OC(C)C)CC3)cc2)cc(OC)c1 [Example 426]
5-5.99	5-5.99	COc1ccccc1COc1ccc(CN2CCN(c3ncccc3C(=O)OC(C)C)CC2)cc1 [Example 429]
4-4.99	4-4.99	CCc1ccccc1COc1ccc(CN2CCN(c3ncccc3C(=O)OC(C)C)CC2)cc1 [Example 432]
5-5.99	5-5.99	Cc1cccc(COc2ccc(CN3CCN(c4ncccc4C(=O)OC(C)C)CC3)cc2)c1 [Example 435]
5-5.99	4-4.99	COc1cccc(F)c1COc1ccc(CN2CCN(c3ncccc3C(=O)OC(C)C)CC2)cc1 [Example 440]
